Reference: patent US20080090771A1 (SHIRE LLC, priority 2006, published 2008)

Test: peptide synthesis
Details: HCl

Boc-Gly-Gly-Gly-Gly-Leu-Hydrocodone showed a step yield (coupling step) of 37%.

Gly-Gly-Gly-Gly-Leu-Hydrocodone gave a step yield (late stage modification step) of 97%.
